These results are taken from article PMC6902597.

The chains behind the UniProt entries cited, without tags or fusion partners.
UniProt Q61473: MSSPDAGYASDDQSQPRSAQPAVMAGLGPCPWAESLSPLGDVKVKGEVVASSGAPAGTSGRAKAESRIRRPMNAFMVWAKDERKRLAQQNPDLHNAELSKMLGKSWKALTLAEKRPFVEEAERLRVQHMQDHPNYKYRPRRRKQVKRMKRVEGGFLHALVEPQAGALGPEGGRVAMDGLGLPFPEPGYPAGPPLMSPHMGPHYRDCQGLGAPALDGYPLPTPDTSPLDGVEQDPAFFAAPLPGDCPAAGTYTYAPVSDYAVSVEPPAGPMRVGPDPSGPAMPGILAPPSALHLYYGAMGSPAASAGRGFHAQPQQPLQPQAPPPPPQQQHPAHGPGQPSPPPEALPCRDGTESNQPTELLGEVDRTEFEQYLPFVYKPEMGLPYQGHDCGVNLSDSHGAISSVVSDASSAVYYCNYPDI

Results are given in words; binding and its absence hold for the method and conditions named. Binding seen in cells or lysates may run through a third protein. Some results given as binding are weak or reduced against the parent protein; the word gives no strength. Where a sequence is shown, tags or fusion partners need not be part of it.

Test [1] addresses Myc-tagged Sox17 (sex-determining region Y-box 17) (UniProt Q61473). The test is described as follows: co-IP; 293T cells co-transfected for 48 h; lysis buffer 20 mM Tris pH 7, 0.5% Nonidet-P40, 25 mM NaCl; antibody or IgG and protein G-agarose overnight at 4 °C; co-IP and reverse co-IP; also with DNAase.
In test [2] the target is Myc-Sox17, Q61473. The test is described as follows: co-IP; TPC-1 cells transfected with Flag-TRIM30, Myc-Sox17 or HA-β-catenin for 48 h; Sox17/β-catenin co-IP with TRIM30 overexpressed. The following applies: remark: other sources report otherwise.
Test [3] deals with Myc-Sox17, Q61473. The experiment in a line: co-IP; TPC-1 cells transfected with the indicated plasmids for 24 h; wild-type cells without rhIL-22, and TRIM30-/- cells with or without 50 ng/ml rhIL-22 for 24 h. The following applies: remark: other sources report otherwise.

B1: Flag-tagged TRIM30 (tripartite-motif protein 30, TRIM30α) (protein, UniProt P15533 1-496)
chain: MASSVLEMIKEEVTCPICLELLKEPVSADCNHSFCRACITLNYESNRNTDGKGNCPVCRVPYPFGNLRPNLHVANIVERLKGFKSIPEEEQKVNICAQHGEKLRLFCRKDMMVICWLCERSQEHRGHQTALIEEVDQEYKEKLQGALWKLMKKAKICDEWQDDLQLQRVDWENQIQINVENVQRQFKGLRDLLDSKENEELQKLKKEKKEVMEKLEESENELEDQTELVRDLISDVEHHLELSTLEMLQGANCVLRRSQSLSLQQPQTVPQKRKRTFQAPDLKGMLQVYQGLMDIQQYWVHMTLHARNNAVIAINKEKRQIQYRSYNTVPVSEIYHLGVLGYPALSSGKHYWEVDISRSDAWLLGLNDGKCAQPQLHSKEEMGIKKNLHSQIKQNVLFQPKCGYWVIGMKNPSVYKAFDECSITHNSSILVISLPDRPSRVGVFLDRKAGTLSFYDVSNCGALIYRFYDPAFPVEVYPYFNPMKCSEPMTICGPPS
For B1, the binding entry in test [1] was “binds”.

B2: HA-β-catenin, Q02248 1-781 (protein)
chain: MATQADLMELDMAMEPDRKAAVSHWQQQSYLDSGIHSGATTTAPSLSGKGNPEEEDVDTSQVLYEWEQGFSQSFTQEQVADIDGQYAMTRAQRVRAAMFPETLDEGMQIPSTQFDAAHPTNVQRLAEPSQMLKHAVVNLINYQDDAELATRAIPELTKLLNDEDQVVVNKAAVMVHQLSKKEASRHAIMRSPQMVSAIVRTMQNTNDVETARCTAGTLHNLSHHREGLLAIFKSGGIPALVKMLGSPVDSVLFYAITTLHNLLLHQEGAKMAVRLAGGLQKMVALLNKTNVKFLAITTDCLQILAYGNQESKLIILASGGPQALVNIMRTYTYEKLLWTTSRVLKVLSVCSSNKPAIVEAGGMQALGLHLTDPSQRLVQNCLWTLRNLSDAATKQEGMEGLLGTLVQLLGSDDINVVTCAAGILSNLTCNNYKNKMMVCQVGGIEALVRTVLRAGDREDITEPAICALRHLTSRHQEAEMAQNAVRLHYGLPVVVKLLHPPSHWPLIKATVGLIRNLALCPANHAPLREQGAIPRLVQLLVRAHQDTQRRTSMGGTQQQFVEGVRMEEIVEGCTGALHILARDVHNRIVIRGLNTIPLFVQLLYSPIENIQRVAAGVLCELAQDKEAAEAIEAEGATAPLTELLHSRNEGVATYAAAVLFRMSEDKPQDYKKRLSVELTSSLFRTEPMAWNETADLGLDIGAQGEALGYRQDDPSYRSFHSGGYGQDALGMDPMMEHEMGGHHPGADYPVDGLPDLGHAQDLMDGLPPGDSNQLAWFDTDL
For B2, the binding result in test [2] and in test [3] was “binds” throughout.

B3: Flag-TRIM8 (protein, UniProt Q99PJ2 1-551)
chain: MAENWKNCFEEELICPICLHVFVEPVQLPCKHNFCRGCIGEAWAKDSGLVRCPECNQAYNQKPGLEKNLKLTNIVEKFNALHVEKPPTALHCVFCRRGPPLPAQKVCLRCEAPCCQSHVQTHLQQPSTARGHLLVEADDVRAWSCPQHNAYRLYHCEAEQVAVCQYCCYYSGAHQGHSVCDVEIRRNEIRKMLMKQQERLEEREQDIEDQLYKLESDKRLVEEKVSQLKEEVRLQYEKLHQLLDEDLRQTVEVLDKAQAKFCSENAAQALHLGERMQEAKKLLGSLQRLFDKTEDVGFMKNTKSVKILMDRTQTCTGSSLSPPKIGHLNSKLFLNEVAKKEKQLRKMLEGPFSTPVPFLQSVPLYPCGVNSSGAEKRKHSTAFPEASFLETSSGPVGGQYGAAGTASSEGQSGQPLGPCSSTQHLVALPGGTQPVHSSPVFPPSQYPNGSTTQQPMLPQYGGRKILVCSVDNCYCSSVANHGGHQPYPRSGHFPWTVPSQEYSHPLPPTPSVPQSLPGLAVRDWLDASQQPGHQDFYRVYGQPSTKHYVTS
As for B3, in test [1], the binding result is on record as “no binding”.
